Measured values as given in the supplement of paper PMC7661543.
± gives the standard deviation of the averaged measurements. The effect of the compound repeats well; differences between the knockouts mostly do not.

System: BT-20
Test: relative cell number vs DMSO control (72 h) (% of DMSO); higher = less growth inhibition (more cells)
Method: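 QMAP-Seq: a pool of 5 breast cancer cell lines (ZR-75-1, SKBR3, HCC-38, MDA-MB-231, BT-20), each carrying 12 doxycycline-inducible Cas9 sgRNA perturbations (11 knockouts plus non-targeting sgNT), was treated with compounds for 72 h at four 10-fold doses (10 nM-10 uM or 1 nM-1 uM range). Barcodes were amplified and sequenced, and cell number was interpolated from 293T spike-in standard curves. The result is expressed as % of the median of DMSO wells. Two biological replicates.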

[1] = sgRNA knockout: sgATF3, 1000 nM
[2] = sgRNA knockout: sgATF3, 10000 nM
[3] = sgRNA knockout: sgATF4, 1000 nM
[4] = sgRNA knockout: sgATF4, 10000 nM
[5] = sgRNA knockout: sgATF6, 1000 nM
[6] = sgRNA knockout: sgATF6, 10000 nM
[7] = sgRNA knockout: sgATG7, 1000 nM
[8] = sgRNA knockout: sgATG7, 10000 nM
[9] = sgRNA knockout: sgERN1, 1000 nM
[10] = sgRNA knockout: sgERN1, 10000 nM
[11] = sgRNA knockout: sgHSF1, 1000 nM
[12] = sgRNA knockout: sgHSF1, 10000 nM
[13] = sgRNA knockout: sgHSF2, 1000 nM
[14] = sgRNA knockout: sgHSF2, 10000 nM
[15] = sgRNA knockout: sgKEAP1, 100 nM
[16] = sgRNA knockout: sgKEAP1, 1000 nM
[17] = sgRNA knockout: sgKEAP1, 10000 nM
[18] = sgRNA knockout: sgNFE2L2, 10 nM
[19] = sgRNA knockout: sgNFE2L2, 100 nM
[20] = sgRNA knockout: sgNFE2L2, 1000 nM
[21] = sgRNA knockout: sgNFE2L2, 10000 nM
[22] = sgRNA knockout: sgSLC35F2, 10 nM
[23] = sgRNA knockout: sgSLC35F2, 100 nM
[24] = sgRNA knockout: sgSLC35F2, 1000 nM
[25] = sgRNA knockout: sgSLC35F2, 10000 nM
[26] = sgRNA knockout: sgXBP1, 1000 nM
[27] = sgRNA knockout: sgXBP1, 10000 nM

SMILES: Fc1ccc(CNc2ncnc3ccc(F)cc23)cc1 [Spautin1]
- relative cell number (sgRNA knockout: sgATF3, 10 nM): 98.89 ± 0.77
- relative cell number (sgRNA knockout: sgATF3, 100 nM): 90.7 ± 16
- relative cell number [1]: 98.9 ± 10
- relative cell number [2]: 93.7 ± 7.8
- relative cell number (sgRNA knockout: sgATF4, 10 nM): 108 ± 15
- relative cell number (sgRNA knockout: sgATF4, 100 nM): 92.5 ± 14
- relative cell number [3]: 99.59 ± 0.53
- relative cell number [4]: 92 ± 11
- relative cell number (sgRNA knockout: sgATF6, 10 nM): 93.6 ± 30
- relative cell number (sgRNA knockout: sgATF6, 100 nM): 94.3 ± 1.1
- relative cell number [5]: 99.72 ± 0.35
- relative cell number [6]: 104 ± 7.2
- relative cell number (sgRNA knockout: sgATG7, 10 nM): 90.8 ± 8.9
- relative cell number (sgRNA knockout: sgATG7, 100 nM): 92.7 ± 10
- relative cell number [7]: 104 ± 8.6
- relative cell number [8]: 98.3 ± 8.7
- relative cell number (sgRNA knockout: sgERN1, 10 nM): 92.9 ± 29
- relative cell number (sgRNA knockout: sgERN1, 100 nM): 100 ± 5.8
- relative cell number [9]: 99.6 ± 15
- relative cell number [10]: 94.8 ± 16
- relative cell number (sgRNA knockout: sgHSF1, 10 nM): 113 ± 12
- relative cell number (sgRNA knockout: sgHSF1, 100 nM): 99.5 ± 5.8
- relative cell number [11]: 101 ± 4.8
- relative cell number [12]: 95.9 ± 21
- relative cell number (sgRNA knockout: sgHSF2, 10 nM): 83.4 ± 15
- relative cell number (sgRNA knockout: sgHSF2, 100 nM): 82 ± 12
- relative cell number [13]: 90.9 ± 13
- relative cell number [14]: 111 ± 22
- relative cell number (sgRNA knockout: sgKEAP1, 10 nM): 113 ± 9.4
- relative cell number [15]: 80.7 ± 17
- relative cell number [16]: 93.2 ± 4
- relative cell number [17]: 91.4 ± 9.4
- relative cell number [18]: 93.6 ± 7
- relative cell number [19]: 95.9 ± 32
- relative cell number [20]: 106 ± 11
- relative cell number [21]: 106 ± 2.3
- relative cell number [22]: 99.4 ± 6.7
- relative cell number [23]: 98.7 ± 14
- relative cell number [24]: 95 ± 13
- relative cell number [25]: 95.4 ± 26
- relative cell number (sgRNA knockout: sgXBP1, 10 nM): 112 ± 11
- relative cell number (sgRNA knockout: sgXBP1, 100 nM): 94.8 ± 16
- relative cell number [26]: 105 ± 18
- relative cell number [27]: 99.6 ± 8.2

SMILES: NC(=O)Nc1sc(-c2ccc(F)cc2)cc1C(N)=O [TPCA1]
- relative cell number (sgRNA knockout: sgATF3, 10 nM): 95.97 ± 0.26
- relative cell number (sgRNA knockout: sgATF3, 100 nM): 97.3 ± 9.8
- relative cell number [1]: 113 ± 16
- relative cell number [2]: 74.4 ± 11
- relative cell number (sgRNA knockout: sgATF4, 10 nM): 101 ± 5
- relative cell number (sgRNA knockout: sgATF4, 100 nM): 108 ± 10
- relative cell number [3]: 114 ± 18
- relative cell number [4]: 72.8 ± 3.8
- relative cell number (sgRNA knockout: sgATF6, 10 nM): 103 ± 18
- relative cell number (sgRNA knockout: sgATF6, 100 nM): 91.2 ± 5.5
- relative cell number [5]: 113 ± 9.7
- relative cell number [6]: 68.3 ± 1.8
- relative cell number (sgRNA knockout: sgATG7, 10 nM): 109 ± 2.1
- relative cell number (sgRNA knockout: sgATG7, 100 nM): 101 ± 6.4
- relative cell number [7]: 107 ± 5
- relative cell number [8]: 68 ± 4.5
- relative cell number (sgRNA knockout: sgERN1, 10 nM): 106 ± 3.4
- relative cell number (sgRNA knockout: sgERN1, 100 nM): 87.9 ± 6.1
- relative cell number [9]: 99.3 ± 5.9
- relative cell number [10]: 68.5 ± 11
- relative cell number (sgRNA knockout: sgHSF1, 10 nM): 103 ± 4.5
- relative cell number (sgRNA knockout: sgHSF1, 100 nM): 99.6 ± 10
- relative cell number [11]: 116 ± 23
- relative cell number [12]: 66.8 ± 5.2
- relative cell number (sgRNA knockout: sgHSF2, 10 nM): 108 ± 14
- relative cell number (sgRNA knockout: sgHSF2, 100 nM): 96.4 ± 4.5
- relative cell number [13]: 105 ± 32
- relative cell number [14]: 69.41 ± 0.11
- relative cell number (sgRNA knockout: sgKEAP1, 10 nM): 108 ± 8.4
- relative cell number [15]: 98.1 ± 9.3
- relative cell number [16]: 107 ± 16
- relative cell number [17]: 66.4 ± 8
- relative cell number [18]: 122 ± 12
- relative cell number [19]: 104 ± 24
- relative cell number [20]: 106 ± 24
- relative cell number [21]: 78 ± 7.9
- relative cell number [22]: 111 ± 4.1
- relative cell number [23]: 105 ± 20
- relative cell number [24]: 93.63 ± 0.73
- relative cell number [25]: 79.4 ± 17
- relative cell number (sgRNA knockout: sgXBP1, 10 nM): 110 ± 7
- relative cell number (sgRNA knockout: sgXBP1, 100 nM): 105 ± 17
- relative cell number [26]: 120 ± 7.7
- relative cell number [27]: 76.7 ± 5

SMILES: Cn1nnc2c(C(N)=O)ncn2c1=O [Temozolomide]
- relative cell number (sgRNA knockout: sgATF3, 10 nM): 111 ± 11
- relative cell number (sgRNA knockout: sgATF3, 100 nM): 91.8 ± 3.4
- relative cell number [1]: 113 ± 12
- relative cell number [2]: 128 ± 34
- relative cell number (sgRNA knockout: sgATF4, 10 nM): 120 ± 10
- relative cell number (sgRNA knockout: sgATF4, 100 nM): 101 ± 9.2
- relative cell number [3]: 115 ± 5.7
- relative cell number [4]: 135 ± 27
- relative cell number (sgRNA knockout: sgATF6, 10 nM): 101 ± 12
- relative cell number (sgRNA knockout: sgATF6, 100 nM): 98.3 ± 15
- relative cell number [5]: 107 ± 12
- relative cell number [6]: 137 ± 40
- relative cell number (sgRNA knockout: sgATG7, 10 nM): 111 ± 16
- relative cell number (sgRNA knockout: sgATG7, 100 nM): 101 ± 2.4
- relative cell number [7]: 108.6 ± 0.89
- relative cell number [8]: 120 ± 27
- relative cell number (sgRNA knockout: sgERN1, 10 nM): 109.4 ± 0.66
- relative cell number (sgRNA knockout: sgERN1, 100 nM): 94.7 ± 1.3
- relative cell number [9]: 106 ± 3.8
- relative cell number [10]: 125 ± 22
- relative cell number (sgRNA knockout: sgHSF1, 10 nM): 103 ± 12
- relative cell number (sgRNA knockout: sgHSF1, 100 nM): 86.34 ± 0.29
- relative cell number [11]: 99.1 ± 11
- relative cell number [12]: 109 ± 31
- relative cell number (sgRNA knockout: sgHSF2, 10 nM): 103 ± 8.9
- relative cell number (sgRNA knockout: sgHSF2, 100 nM): 88.96 ± 0.34
- relative cell number [13]: 116 ± 22
- relative cell number [14]: 122 ± 24
- relative cell number (sgRNA knockout: sgKEAP1, 10 nM): 95.6 ± 6.1
- relative cell number [15]: 100 ± 12
- relative cell number [16]: 111 ± 5.3
- relative cell number [17]: 113 ± 4.3
- relative cell number [18]: 125 ± 1.2
- relative cell number [19]: 108 ± 9.3
- relative cell number [20]: 144 ± 19
- relative cell number [21]: 158 ± 48
- relative cell number [22]: 103 ± 9.4
- relative cell number [23]: 98.7 ± 7.7
- relative cell number [24]: 115 ± 22
- relative cell number [25]: 118 ± 55
- relative cell number (sgRNA knockout: sgXBP1, 10 nM): 103 ± 1.5
- relative cell number (sgRNA knockout: sgXBP1, 100 nM): 95.4 ± 2.2
- relative cell number [26]: 111 ± 6.2
- relative cell number [27]: 123 ± 31
